From PubChem BioAssay record AID504749 (NCATS, 2011).

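A panel of P. falciparum strains inside erythrocytes is exposed to compounds for three days, then a DNA-binding dye reports the amount of parasite DNA. Each compound was titrated across a series from about 0.000037 to 29 µM. The number is the fitted AC50, the concentration giving a half-maximal change in signal; a lower value means higher potency, whether the curve shows a decrease or an increase. Calls follow the curve class and fit quality: every row here is inconclusive, covering signal-raising curves and weak, poorly fitted, partial or highest-dose-only inhibition curves.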

Values are in nM. All entries here are filed as inconclusive. Only part of the assay is shown, chiefly results filed as inconclusive. Potencies fitted to partial, single-point or poorly fitting curves are rough. Some entries filed as inconclusive have a full curve.

| # | compound | setting | Potency (nM) | remark |
|---|---|---|---|---|
| 1 | `CN1CCC[C@@H]1Cc1c[nH]c2ccc(CCS(=O)(=O)c3ccccc3)cc12` | CP238 | 7080 | inhibitor, partial curve |
| 2 | `CN1CCC[C@@H]1Cc1c[nH]c2ccc(CCS(=O)(=O)c3ccccc3)cc12` | CP297 | 7569 | inhibitor, partial curve, poor fit |
| 3 | `CN1CCC[C@@H]1Cc1c[nH]c2ccc(CCS(=O)(=O)c3ccccc3)cc12` | ECU | 10000 | inhibitor, single point |
| 4 | `CN(C)CCCN1c2ccccc2C(C)(C)c2ccccc21` | DIV30 | 3013 | inhibitor, partial curve, poor fit |
| 5 | `CN(C)CCCN1c2ccccc2C(C)(C)c2ccccc21` | AA1029 | 10000 | inhibitor, partial curve |
| 6 | `CN(C)CCCN1c2ccccc2C(C)(C)c2ccccc21` | GB4 | 7569 | inhibitor, partial curve |
| 7 | `CN(C)CCCN1c2ccccc2C(C)(C)c2ccccc21` | CP203 | 6746 | inhibitor, partial curve |
| 8 | `CN(C)CCCN1c2ccccc2C(C)(C)c2ccccc21` | PC15 | 14125 | inhibitor, single point |
| 9 | `CN(C)CCCN1c2ccccc2C(C)(C)c2ccccc21` | ICS | 8912 | inhibitor, single point |
| 10 | `CN(C)CCCN1c2ccccc2C(C)(C)c2ccccc21` | 7G8 | 10000 | inhibitor, single point |
| 11 | `CN(C)CCCN1c2ccccc2C(C)(C)c2ccccc21` | CP268 | 7569 | inhibitor, partial curve, poor fit |
| 12 | `CN(C)CCCN1c2ccccc2C(C)(C)c2ccccc21` | CP191 | 11220 | inhibitor, single point |
| 13 | `CN(C)CCCN1c2ccccc2C(C)(C)c2ccccc21` | CP247 | 10000 | inhibitor, single point |
| 14 | `CN(C)CCCN1c2ccccc2C(C)(C)c2ccccc21` | CP265 | 7080 | inhibitor, partial curve |
| 15 | `CN(C)CCCN1c2ccccc2C(C)(C)c2ccccc21` | P93_24 | 4467 | inhibitor, partial curve |
| 16 | `CN(C)CCCN1c2ccccc2C(C)(C)c2ccccc21` | Dd2 | 8912 | inhibitor, partial curve |
| 17 | `CN(C)CCCN1c2ccccc2C(C)(C)c2ccccc21` | TAB109 | 5012 | inhibitor, partial curve, poor fit |
| 18 | `CN(C)CCCN1c2ccccc2C(C)(C)c2ccccc21` | TAB113 | 11220 | inhibitor, partial curve |
| 19 | `CN(C)CCCN1c2ccccc2C(C)(C)c2ccccc21` | PC26 | 6746 | inhibitor, partial curve |
| 20 | `CN(C)CCCN1c2ccccc2C(C)(C)c2ccccc21` | CP238 | 12589 | inhibitor, single point |
| 21 | `CN(C)CCCN1c2ccccc2C(C)(C)c2ccccc21` | CP335 | 3381 | inhibitor, full curve |
| 22 | `CN(C)CCCN1c2ccccc2C(C)(C)c2ccccc21` | CP266 | 952.8 | inhibitor, partial curve, poor fit |
| 23 | `CN(C)CCCN1c2ccccc2C(C)(C)c2ccccc21` | AS120 | 7943 | inhibitor, partial curve, poor fit |
| 24 | `CN(C)CCCN1c2ccccc2C(C)(C)c2ccccc21` | CP256 | 7080 | inhibitor, partial curve, poor fit |
| 25 | `CN(C)CCCN1c2ccccc2C(C)(C)c2ccccc21` | CP250 | 17782 | inhibitor, single point |
| 26 | `CN(C)CCCN1c2ccccc2C(C)(C)c2ccccc21` | ATS189 | 5012 | inhibitor, partial curve |
| 27 | `CN(C)CCCN1c2ccccc2C(C)(C)c2ccccc21` | N140 | 14125 | inhibitor, single point |
| 28 | `CN(C)CCCN1c2ccccc2C(C)(C)c2ccccc21` | CP237 | 5012 | inhibitor, partial curve |
| 29 | `CN(C)CCCN1c2ccccc2C(C)(C)c2ccccc21` | SC27B | 7943 | inhibitor, partial curve |
| 30 | `CN(C)CCCN1c2ccccc2C(C)(C)c2ccccc21` | P94_40 | 12589 | inhibitor, single point |

The last 2 entries again:

compound,setting,Potency (nM),remark
CN(C)CCCN1c2ccccc2C(C)(C)c2ccccc21,SC27B,7943,"inhibitor, partial curve"
CN(C)CCCN1c2ccccc2C(C)(C)c2ccccc21,P94_40,12589,"inhibitor, single point"